In article PMC4239116, “Crystal Structure of Cytomegalovirus IE1 Protein Reveals Targeting of TRIM Family Member PML via Coiled-Coil Interactions” (PLoS Pathogens, 2014) one finds binding data, which are given here for three substances.

The chains behind the UniProt entries cited, without tags or fusion partners. Where a name states a change or a piece, a line headed by the entry shows the natural chain unless it says otherwise.
UniProt Q0PF16: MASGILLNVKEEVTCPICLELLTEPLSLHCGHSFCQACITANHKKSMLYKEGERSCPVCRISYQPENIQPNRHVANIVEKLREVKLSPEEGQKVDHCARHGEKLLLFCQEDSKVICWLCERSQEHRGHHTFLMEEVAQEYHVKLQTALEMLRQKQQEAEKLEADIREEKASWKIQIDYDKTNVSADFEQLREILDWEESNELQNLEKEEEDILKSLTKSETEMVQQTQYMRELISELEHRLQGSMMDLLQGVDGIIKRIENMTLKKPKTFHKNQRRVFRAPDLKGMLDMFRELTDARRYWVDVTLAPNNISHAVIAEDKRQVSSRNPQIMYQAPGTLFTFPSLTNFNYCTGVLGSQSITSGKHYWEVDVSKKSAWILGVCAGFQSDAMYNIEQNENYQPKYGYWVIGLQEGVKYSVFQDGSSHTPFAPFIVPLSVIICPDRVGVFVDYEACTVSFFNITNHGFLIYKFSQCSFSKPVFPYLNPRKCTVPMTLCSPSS
UniProt P13202: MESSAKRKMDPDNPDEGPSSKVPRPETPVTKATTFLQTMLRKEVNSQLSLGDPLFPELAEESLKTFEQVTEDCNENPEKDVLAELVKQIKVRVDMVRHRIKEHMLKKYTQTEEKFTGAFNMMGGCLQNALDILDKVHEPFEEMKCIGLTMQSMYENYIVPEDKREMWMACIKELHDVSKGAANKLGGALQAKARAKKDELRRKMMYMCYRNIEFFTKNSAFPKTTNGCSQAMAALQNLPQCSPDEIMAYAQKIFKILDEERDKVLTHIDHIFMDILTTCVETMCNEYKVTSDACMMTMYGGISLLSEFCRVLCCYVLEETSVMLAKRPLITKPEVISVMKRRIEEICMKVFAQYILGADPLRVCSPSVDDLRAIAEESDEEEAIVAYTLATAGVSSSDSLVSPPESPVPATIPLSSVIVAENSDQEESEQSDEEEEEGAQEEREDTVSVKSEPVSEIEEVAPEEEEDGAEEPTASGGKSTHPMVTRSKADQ

For assay [1], the target named is FLAG-tagged rhesus macaque TRIM5α (rhesus macaque) (UniProt Q0PF16). Description: co-IP.
The target of assay [2] is FLAG-tagged PML (isoform VI) (UniProt P29590). Description: co-IP.
Assay [3] has as its target PML, yeast two-hybrid fusion (UniProt P29590). Description: two-hybrid; S. cerevisiae Y153, pGBT9 and pGAD424 fusions; XGal filter lift assay.
Assay [4] has the same target. Description: two-hybrid; S. cerevisiae Y153, pGBT9 and pGAD424 fusions; β-galactosidase activity quantified with ONPG, background of the empty vectors subtracted.

No constants are given. Whether binding was seen depends on the method and setting. For some assays here: In cells and extracts the contact can be indirect. Some entries that bind do so weakly or less than the wild type.

“Myc-tagged hIE1(1-382) (from UniProt P13202 1-382) (domain or fragment)”: the binding entry in assay [1] and in assay [2] was “binds” throughout.

Consider “full-length hIE1, yeast two-hybrid fusion (from UniProt P13202 1-491)”, for which the binding entry in assay [3] is reported as “binds”. Regarding “hIE1_(CORE)(14-382), yeast two-hybrid fusion (from UniProt P13202 14-382) (domain or fragment)”, the binding result in assay [3] and in assay [4] was “binds” in each case.
